PubChem BioAssay (NCATS)
Inconclusive means that the source gave no clear call. Such entries were picked first, then a sample of the others. A potency beside an inconclusive call is a rough fit, not a confirmed value. The source made the active and inactive calls. The call rests on the fitted dose curve; in most records, active means well fitted cell-killing curve with a large enough effect; inconclusive means small, poorly fitted or top-dose-only effect, or effect the other way; inactive means no such curve, though single readings can be large or run the other way.

Assays:
[1] = Quantitative High-Throughput drug screen in 47 multiple myeloma cell lines against the NCATS MIPE library collection: LP1_DSMZ cell viability assay (AID 1918982); details: LP1 myeloma viability, CellTiter-Glo ATP luminescence, 48 h; viability (% of control): at 45.8 µM (top of the series); further: nearly all actives have a fitted effect of over 35% in size
Outline: (§1)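 500 cells/well per myeloma line exposed to pinned MIPE 4.0 compounds for 48 h at 37 °C, 5% CO2. Viability read as ATP by CellTiter-Glo luminescence, normalised to DMSO-only (100%) and media-only (0%) wells.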

[2] = Quantitative High-Throughput drug screen in 47 multiple myeloma cell lines against the NCATS MIPE library collection: KMS28PE_JCRB cell viability assay (AID 1918983); further: nearly all actives have a fitted effect of over 35% in size
Outline: as §1

[3] = Quantitative High-Throughput drug screen in 47 multiple myeloma cell lines against the NCATS MIPE library collection: L363_DSMZ cell viability assay (AID 1918984); details: L363 myeloma viability, CellTiter-Glo ATP luminescence, 48 h; viability (% of control): at 45.8 µM (top of the series); further: nearly all actives have a fitted effect of over 40% in size
Outline: as §1

[4] = Quantitative High-Throughput drug screen in 47 multiple myeloma cell lines against the NCATS MIPE library collection: OCIMY7_PLB cell viability assay (AID 1918987); details: OCI-MY7 myeloma viability, CellTiter-Glo ATP, 48 h; viability (% of DMSO): at 45.8 µM (top of the series); further: nearly all actives have a fitted effect of over 65% in size
Outline: as §1

[5] = Quantitative High-Throughput drug screen in 47 multiple myeloma cell lines against the NCATS MIPE library collection: OCIMY5_PLB cell viability assay (AID 1918988); details: OCI-MY5 myeloma viability, ATP luminescence, 48 h; viability, % of control: at 45.8 µM (top of the series); further: nearly all actives have a fitted effect of over 65% in size;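 on viability, % of control: 100% = DMSO-treated wells and 0% = wells with media alone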
Outline: as §1

[6] = Quantitative High-Throughput drug screen in 47 multiple myeloma cell lines against the NCATS MIPE library collection: OPM1_PLB cell viability assay (AID 1918989); details: CellTiter-Glo, 48 h; viability (% of control): at 45.8 µM (top of the series); further: nearly all actives have a fitted effect of over 40% in size
Outline: as §1

[7] = Quantitative High-Throughput drug screen in 47 multiple myeloma cell lines against the NCATS MIPE library collection: SKMM1_PLB cell viability assay (AID 1919863); details: SKMM1 myeloma viability, CellTiter-Glo ATP, 48 h; viability: active compounds read low; further: nearly all actives have a fitted effect of over 35% in size
Outline: as §1

[8] = Quantitative High-Throughput drug screen in 47 multiple myeloma cell lines against the NCATS MIPE library collection: KMS34_JCRB cell viability assay (AID 1918985); details: KMS34 myeloma viability, CellTiter-Glo ATP luminescence, 48 h; viability, percent of control: at 45.8 µM (top of the series); further: nearly all actives have a fitted effect of over 40% in size
Outline: as §1

[9] = Quantitative High-Throughput drug screen in 47 multiple myeloma cell lines against the NCATS MIPE library collection: U266_ATCC cell viability assay (AID 1919864); further: nearly all actives have a fitted effect of over 35% in size
Outline: as §1
Potency means the concentration at half of the fitted maximal effect.

Row | Compound | Potency [1] | Potency [2] | Potency [3] | Potency [4] | viability, % of control [5] | Potency [6] | viability [7] | Potency [5] | Potency [8] | Potency [7] | Potency [9]
1 | CC(C)(C)COc1ccc(-n2cc(C(=O)O)cn2)cc1C#N | inactive | inactive | inactive | inconclusive: 37.2 µM [cytotoxic, single point] | inconclusive: 147% [cytotoxic] | inconclusive: 0.001 µM [cytotoxic] | inactive: 120% | – | – | – | –
2 | CC1=C[C@@H]2[C@@H]([C@@H](O)C[C@@]3(C)[C@H]2C[C@@H](C)[C@]3(O)C(=O)CO)[C@@]2(C)Cc3cnn(-c4ccccc4)c3C=C12 | inconclusive: 14.8 µM [cytotoxic, partial curve, poor fit] | inconclusive: 20.9 µM [cytotoxic, single point] | active: 0.0332 µM | active: 9.35 µM | – | inconclusive: 37.2 µM [cytotoxic, single point] | – | active: 1.87 µM | – | – | –
3 | CCCCc1oc2ccccc2c1C(=O)c1cc(I)c(OCCN(CC)CC)c(I)c1 | inconclusive: 20.9 µM [cytotoxic, partial curve] | inconclusive: 20.9 µM [cytotoxic, partial curve] | inconclusive: 23.5 µM [cytotoxic, partial curve, poor fit] | – | – | active: 18.7 µM | – | – | active: 11.8 µM | – | –
4 | Nc1nc(F)nc2c1ncn2[C@@H]1O[C@H](COP(=O)(O)O)[C@@H](O)[C@H]1O | inconclusive: 0.001 µM | inconclusive: 0.0053 µM [rising, full curve] | inconclusive: 29.6 µM [cytotoxic, single point] | – | – | inactive | – | – | inconclusive: 11.8 µM [cytotoxic, partial curve, poor fit] | inconclusive: 26.4 µM [cytotoxic, single point] | –
5 | CCCc1nc2c(C)cc(-c3nc4ccccc4n3C)cc2n1Cc1ccc(-c2ccccc2C(=O)O)cc1 | inactive | – | inconclusive: 0.59 µM [cytotoxic, full curve, poor fit] | inconclusive: 6.62 µM [cytotoxic, full curve, poor fit] | – | inactive | inactive: 142% | inconclusive: 37.2 µM [cytotoxic, single point] | inactive | – | inconclusive: 0.0074 µM [rising, full curve]
6 | CC(C)CNc1ccnc(NCc2csc(-c3ccccc3)n2)n1 | active: 11.8 µM | inconclusive: 16.6 µM [cytotoxic, partial curve] | active: 1.87 µM | – | – | – | – | – | inconclusive: 0.0187 µM [cytotoxic, full curve, poor fit] | inconclusive: 20.9 µM [cytotoxic, partial curve] | –
7 | O=c1cc(-c2ccccc2)oc2cc(O)c(O)c(O)c12 | inconclusive: 14.8 µM [cytotoxic, partial curve, poor fit] | inconclusive: 37.2 µM [cytotoxic, single point] | inactive | – | – | – | – | inconclusive: 16.6 µM [cytotoxic, partial curve, poor fit] | inconclusive: 13.2 µM [cytotoxic, partial curve, poor fit] | – | –
8 | CCN1CCC(n2cc(CNc3cc(Cl)c4ncc(C#N)c(Nc5ccc(F)c(Cl)c5)c4c3)nn2)CC1 | inconclusive: 13.2 µM [cytotoxic, partial curve, poor fit] | active: 7.43 µM | active: 4.69 µM | inconclusive: 2.35 µM [cytotoxic, full curve, poor fit] | – | – | – | – | inconclusive: 16.6 µM [cytotoxic, partial curve, poor fit] | active: 5.9 µM | –
9 | O=C1Cc2cc(CCN3CCN(c4nsc5ccccc45)CC3)c(Cl)cc2N1 | inconclusive: 16.6 µM [cytotoxic, single point] | inconclusive: 23.5 µM [cytotoxic, partial curve] | inconclusive: 0.0023 µM [cytotoxic, full curve, poor fit] | – | – | inconclusive: 29.6 µM [cytotoxic, single point] | – | – | active: 20.9 µM | inconclusive: 37.2 µM [cytotoxic, single point] | –
10 | N#CC(=C(N)Sc1ccccc1N)C(C#N)=C(N)Sc1ccccc1N | inconclusive: 37.2 µM [cytotoxic, single point] | inconclusive: 0.296 µM [cytotoxic, full curve, poor fit] | – | active: 0.662 µM | – | – | – | inconclusive: 3.72 µM [cytotoxic, partial curve, poor fit] | inconclusive: 0.296 µM [cytotoxic, full curve, poor fit] | active: 1.32 µM | –
11 | O=C(Nc1nc2ccccc2n1CCN1CCOCC1)c1cccc([N+](=O)[O-])c1 | inconclusive: 20.9 µM [cytotoxic, single point] | inconclusive: 26.4 µM [cytotoxic, partial curve, poor fit] | inconclusive: 1.18 µM [cytotoxic, full curve, poor fit] | active: 1.87 µM | – | inconclusive: 4.69 µM [cytotoxic, partial curve, poor fit] | inconclusive: 94.7% [cytotoxic] | – | inconclusive: 18.7 µM [cytotoxic, partial curve] | – | –
12 | Cn1ccc2cc3c(cc21)CCN3C(=O)Nc1cccnc1 | inconclusive: 0.0012 µM [cytotoxic, full curve, poor fit] | inconclusive: 4.18 µM [rising, partial curve] | inconclusive: 16.6 µM [cytotoxic, partial curve, poor fit] | – | – | inconclusive: 37.2 µM [cytotoxic, single point] | – | inconclusive: 37.2 µM [cytotoxic, single point] | inconclusive: 37.2 µM [cytotoxic, single point] | inconclusive: 11.8 µM [rising, single point] | inconclusive: 37.2 µM [cytotoxic, single point]
13 | O=c1cc(N2CCOCC2)oc2c(-c3ccccc3)cccc12 | active: 11.8 µM | – | inactive | inconclusive: 5.9 µM [cytotoxic, partial curve, poor fit] | – | – | – | – | active: 11.8 µM | – | –
14 | O=C1NC(=O)C(=Cc2ccc3nccnc3c2)S1 | inconclusive: 8.12 µM [cytotoxic, partial curve, poor fit] | active: 10.2 µM | – | active: 2.29 µM | – | – | – | inconclusive: 12.9 µM [cytotoxic, partial curve, poor fit] | inconclusive: 10.2 µM [cytotoxic, partial curve] | – | inconclusive: 10.2 µM [cytotoxic, partial curve, poor fit]
15 | O=C1C(Cl)=C(NCCN2CCOCC2)C(=O)c2ncccc21 | active: 8.33 µM | – | active: 3.72 µM | – | – | – | – | – | – | – | –
16 | COc1cc(Nc2ncc(F)c(Nc3ccc4c(n3)NC(=O)C(C)(C)O4)n2)cc(OC)c1OC | inconclusive: 1.05 µM [cytotoxic, full curve] | active: 0.833 µM | inconclusive: 23.5 µM [cytotoxic, partial curve, poor fit] | – | – | – | – | – | active: 4.69 µM | inconclusive: 26.4 µM [cytotoxic, partial curve, poor fit] | –
17 | Cc1cnc(Nc2ccc(OCCN3CCCC3)cc2)nc1Nc1cccc(S(=O)(=O)NC(C)(C)C)c1 | inactive | inconclusive: 0.418 µM [cytotoxic, full curve, poor fit] | – | inconclusive: 0.296 µM [cytotoxic, full curve, poor fit] | – | inconclusive: 37.2 µM [cytotoxic, single point] | – | inconclusive: 0.469 µM [cytotoxic, full curve, poor fit] | inconclusive: 0.418 µM [cytotoxic, full curve, poor fit] | inconclusive: 0.662 µM [cytotoxic, full curve, poor fit] | –
18 | Cc1cc(C=c2sc3nc4ccccc4n3c2=O)c(C)n1-c1ccccc1 | inactive | inconclusive: 1.87 µM [cytotoxic, partial curve, poor fit] | inconclusive: 2.96 µM [cytotoxic, full curve, poor fit] | inconclusive: 11.8 µM [cytotoxic, full curve, poor fit] | – | inconclusive: 0.0083 µM [cytotoxic, full curve, poor fit] | – | – | – | inconclusive: 23.5 µM [cytotoxic, partial curve, poor fit] | inconclusive: 23.5 µM [cytotoxic, single point]
19 | O=S(=O)(O)CCSSCCS(=O)(=O)O | inactive | inconclusive: 0.0012 µM [rising, full curve, poor fit] | inconclusive: 0.0074 µM [rising, full curve, poor fit] | – | – | – | – | inactive | inconclusive: 0.59 µM [rising, partial curve, poor fit] | inconclusive: 0.0023 µM [rising, full curve, poor fit] | inconclusive: 26.4 µM [cytotoxic, single point]
20 | CN(C)c1ccc(Nc2nc(N)n(C(=O)c3c(F)cccc3F)n2)cc1 | active: 16.6 µM | inconclusive: 29.6 µM [cytotoxic, single point] | active: 20.9 µM | – | – | – | – | – | – | inconclusive: 23.5 µM [cytotoxic, single point] | –
21 | CC(C)C(=O)Oc1ccc(CO)cc1[C@H](CCN(C(C)C)C(C)C)c1ccccc1 | inactive | inconclusive: 20.9 µM [cytotoxic, partial curve] | inconclusive: 0.0132 µM [cytotoxic, full curve, poor fit] | inconclusive: 0.296 µM [rising, full curve, poor fit] | – | – | – | inconclusive: 33.2 µM [cytotoxic, single point] | – | inconclusive: 20.9 µM [cytotoxic, partial curve, poor fit] | inconclusive: 18.7 µM [cytotoxic, partial curve, poor fit]
22 | COc1cccc(-c2cc(=O)c3ccccc3o2)c1N | inconclusive: 37.2 µM [cytotoxic, single point] | inconclusive: 2.96 µM [rising, partial curve, poor fit] | inconclusive: 37.2 µM [cytotoxic, single point] | – | – | – | – | inconclusive: 1.32 µM [cytotoxic, full curve, poor fit] | inconclusive: 26.4 µM [cytotoxic, single point] | inconclusive: 0.372 µM [rising, partial curve, poor fit] | –

Part of the list above, in markdown:

| Row | Compound | Potency [1] | Potency [2] | Potency [3] | Potency [4] | viability, % of control [5] | Potency [6] | viability [7] | Potency [5] | Potency [8] | Potency [7] | Potency [9] |
| --- | --- | --- | --- | --- | --- | --- | --- | --- | --- | --- | --- | --- |
| 8 | CCN1CCC(n2cc(CNc3cc(Cl)c4ncc(C#N)c(Nc5ccc(F)c(Cl)c5)c4c3)nn2)CC1 | inconclusive: 13.2 µM [cytotoxic, partial curve, poor fit] | active: 7.43 µM | active: 4.69 µM | inconclusive: 2.35 µM [cytotoxic, full curve, poor fit] | – | – | – | – | inconclusive: 16.6 µM [cytotoxic, partial curve, poor fit] | active: 5.9 µM | – |
| 9 | O=C1Cc2cc(CCN3CCN(c4nsc5ccccc45)CC3)c(Cl)cc2N1 | inconclusive: 16.6 µM [cytotoxic, single point] | inconclusive: 23.5 µM [cytotoxic, partial curve] | inconclusive: 0.0023 µM [cytotoxic, full curve, poor fit] | – | – | inconclusive: 29.6 µM [cytotoxic, single point] | – | – | active: 20.9 µM | inconclusive: 37.2 µM [cytotoxic, single point] | – |
